Source: patent US20120028929A1, “TETRACYCLINE STABILIZING FORMULATIONS” (ALACRITY BIOSCIENCE, INC., priority 2008, published 2012)
Like-named read-outs stand apart in the source and are kept apart here. For at least one compound, name, drawing or mass did not settle the structure.

Assay type: physicochemical
Conditions: 0.025% w/w Doxycycline in Standard Formulation
Protocol: The rate of doxycycline epimerization increased with temperature and time (see Table 7). […] Long-term storage (more than 18 months) should therefore be at refrigeration temperatures (2-8° C.) to minimize conversion of doxycycline to its epimers.
After 12 months of storage at 5° C., about 0.0014% w/w of the doxycycline in solution was lost to degradation. That is, original doxycyline concentration was 0.025% w/w and concentration after 12 months was 0.0236% w/w, corresponding to 94.4% Label Claim (LC).
The epimerization of doxycycline into 4-epidoxycycline is reversible, and the rate of 4-epidoxycycline formation is related to the kinetic equilibrium between the two compounds. Therefore, one method for specifically reducing the rate of doxycycline epimerization into 4-epidoxycycline is to fortify the formulation with 4-epidoxycycline.

SMILES: C[C@H]1c2cccc(O)c2C(=O)C2=C(O)[C@]3(O)C(=O)C(C(N)=O)=C(O)[C@@H](N(C)C)[C@@H]3[C@@H](O)[C@@H]21 [doxycycline]
- Determined 4-Epidoxycycline, % LC (5° C. for 12 mo): 7.6 % LC
- Determined 6-Epidoxycycline, % LC (5° C. for 12 mo): 0.4 % LC
- Determined 4-Epidoxycycline, % LC (25° C. for 12 mo): 24 % LC
- Determined 6-Epidoxycycline, % LC (25° C. for 12 mo): 0.4 % LC
